Source: patent publication US20140005235A1, “INSECTICIDAL COMPOUNDS” (SYNGENTA PARTICIPATIONS AG, priority 2011, published 2014)
Some of these results come from one statement about several compounds together.

Key:
Type in all cases: in vivo
Heliothis virescens = Heliothis virescens (tobacco budworm) egg test on artificial diet; settings: application rate 200 ppm (concentration in well 18 ppm), eggs 0-24 h old on artificial diet, egg mortality, larval mortality, growth regulation after 4 days
Tetranychus urticae = Tetranychus urticae (two-spotted spider mite) bean leaf disc spray test; settings: application rate 200 ppm, sprayed bean leaf discs, mite populations of mixed ages, egg, larval and adult mortality after 8 days
Plutella xylostella = Plutella xylostella (diamond back moth) artificial diet MTP test; settings: application rate 200 ppm (concentration in well 18 ppm), L2 larvae, larval mortality and growth regulation after 6 days
Diabrotica balteata = Diabrotica balteata (corn root worm) artificial diet MTP test; settings: application rate 200 ppm (concentration in well 18 ppm), L2 larvae, larval mortality and growth regulation after 5 days
Spodoptera littoralis = Spodoptera littoralis (Egyptian cotton leafworm) leaf disc spray test; settings: application rate 200 ppm, sprayed cotton leaf discs, 5 L1 larvae, mortality, feeding behavior, growth regulation 3 DAT

| SMILES | control of Heliothis virescens (Heliothis virescens) | control of Tetranychus urticae (Tetranychus urticae) | control of Plutella xylostella (Plutella xylostella) | control of Diabrotica balteata (Diabrotica balteata) | control of Spodoptera littoralis (Spodoptera littoralis) |
| --- | --- | --- | --- | --- | --- |
| O=C(NCC(F)(F)F)c1ccc(C(=O)Nc2c(Cl)cc(C(F)(C(F)(F)F)C(F)(F)F)cc2Cl)c2ccccc12 [Compound A1] | at least 80% | at least 80% | at least 80% | at least 80% | at least 80% |
| CCNC(=O)c1ccc(C(=O)Nc2c(Cl)cc(C(F)(C(F)(F)F)C(F)(F)F)cc2Cl)c2ccccc12 [Compound A2] | – | at least 80% | – | – | – |
| O=C(CNC(=O)c1ccc(C(=O)Nc2c(Cl)cc(C(F)(C(F)(F)F)C(F)(F)F)cc2Cl)c2ccccc12)NCC(F)(F)F [Compound A4] | at least 80% | at least 80% | at least 80% | at least 80% | at least 80% |
| O=C(NCc1ccccc1)c1ccc(C(=O)Nc2c(Cl)cc(C(F)(C(F)(F)F)C(F)(F)F)cc2Cl)c2ccccc12 [Compound A8] | – | – | at least 80% | – | – |
| O=C(NCc1ccccc1F)c1ccc(C(=O)Nc2c(Cl)cc(C(F)(C(F)(F)F)C(F)(F)F)cc2Cl)c2ccccc12 [Compound A9] | – | – | at least 80% | – | – |
| O=C(NCc1ccccn1)c1ccc(C(=O)Nc2c(Cl)cc(C(F)(C(F)(F)F)C(F)(F)F)cc2Cl)c2ccccc12 [Compound A15] | at least 80% | – | at least 80% | – | at least 80% |
| Cc1csc(NC(=O)c2ccc(C(=O)Nc3c(Cl)cc(C(F)(C(F)(F)F)C(F)(F)F)cc3Cl)c3ccccc23)n1 [Compound A17] | at least 80% | – | at least 80% | at least 80% | – |
